From PubChem BioAssay AID2685 (National Center for Advancing Translational Sciences (NCATS), 2010) come the findings set out here.

The assay can be described thus: qHTS Assay for Lipid Storage Modulators in Drosophila S3 Cells.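 As to cell number change: cells counted by Cell Tracker Red CMTPX staining in the red channel.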 Particulars: BODIPY lipid droplet fluorescence, 18-24 h; for cell number change: measured here: cell count max response, cells fed with added oleic acid. The method, boiled down:
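Laser-scanning cytometry quantifies lipid droplet accumulation (500–530 nm total intensity; droplet/cell object ratio) in oleic acid-fed (400 uM added) Drosophila S3 cells treated with a concentration series. 20 uM Triacsin C defined 100% inhibition.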
(In qHTS, concentration-response curves come from the screen itself.)

Setting [1] is: measured here: lipid fluorescence (Fed channel) AC50, cells fed with added oleic acid.
Where [2] appears, read: measured here: cell number channel AC50, cells fed with added oleic acid.

A word on the AC50: it is the concentration giving half of the maximal activity seen. A high value points to activity only at high concentration.

Some of the results follow. Shown are side measurements of this screen, not its main read-out; they come without a call. Compounds called inactive in the main read-out are mostly missing here. The note in brackets gives the kind of curve behind each potency; many fits are weak.

Consider `CC1(C)CCC(=O)N2CC[C@H]3C[C@H](OC(=O)Nc4ccc(Br)cc4)C[C@@H]1[C@H]32`, for which the cell number change was -8.98%. Further, under setting [1], the AC50 was 0.82 µM [falling, partial curve, poor fit].

For the compound `S=C(c1ccccc1)N1CCCC1`, the cell number change worked out at 8.99%. For the same compound, under setting [1], the AC50 is 0.651 µM [rising, full curve, poor fit].

Take `O=S(=O)(c1ccc(SCc2ccccc2)nc1)N1CCCCC1`: the cell number change is -4.82%. Further, under setting [2], the AC50 was 4.61 µM [falling, partial curve].

Turning to `CCS(=O)(=O)c1nc(S(=O)(=O)c2ccc(C)cc2)c(N2CCOCC2)s1`, the cell number change was 2.85%. In addition, the AC50 under setting [1] is 0.58 µM [falling, single point].

`CC1(NC(=O)C2CCCCC2)CCS(=O)(=O)C1` (stereo unspecified): the cell number change was -31.1%.

Turning to `CN(CCc1ccccn1)C(=O)c1ccc(OC2CCN(Cc3ccccn3)CC2)cc1`, the cell number change was -2.55%. Under setting [2], the AC50 is 6.51 µM [rising, single point].

Consider `O=C(NCC1CCCO1)C1C2C=CC3(CN(Cc4cccs4)C(=O)C13)O2` (stereo unspecified), for which the cell number change is -1.7%. Besides, the AC50 under setting [1] was 29.1 µM [falling, single point].

As to `COc1ccccc1C1C(C#N)=C(N)N(N(C)C)C2=C1C(=O)CC(C)(C)C2` (stereo unspecified), the cell number change is -8.33%. Moreover, under setting [1], the AC50 was 29.1 µM [rising, single point].

Turning to `CCOC(=O)c1cccc(NC(=O)CSc2nnnn2CC)c1`, the cell number change was -13.3%. The AC50 under setting [2] is 6.51 µM [rising, single point].

`N#CC(C(=O)OC1CCCCC1)c1nc2ccccc2nc1N1CCCCC1` (stereo unspecified): the cell number change came out at 8.27%.

In the case of `COc1ccc(Cl)cc1NC(=O)Cn1nnc(C(=O)NCc2ccc3c(c2)OCO3)c1N`, the cell number change worked out at 8.36%. Besides, under setting [1], the AC50 is 7.31 µM [falling, partial curve, poor fit].

As for `O=C(NCc1ccco1)c1cccc(S(=O)(=O)N2CCCC2)c1`, the cell number change came out at 0.952%. Besides, the concentration at half-maximal activity (AC50) under setting [1] is 29.1 µM [rising, partial curve, poor fit].

Regarding `CCCc1c(C(=O)N/N=C/C(C)=C/c2ccco2)nnn1-c1nonc1N`, the cell number change amounted to 5.67%. Further, the AC50 under setting [1] was 29.1 µM [falling, single point].

As for `O=C(NCc1ccc(F)cc1)C1(S(=O)(=O)c2ccc(Cl)cc2)CC1`, the cell number change was -6.67%. The AC50 under setting [1] was 29.1 µM [rising, single point].

`CC(C)(C)c1ccc(OCC(=O)N(Cc2cccs2)C2CCS(=O)(=O)C2)cc1` (stereo unspecified): the cell number change was -3.46%. Under setting [1], the half-maximal activity concentration (AC50) was 29.1 µM [falling, single point].

For `CCCOc1ccc(NC2=CC(=O)CC(C)(C)C2)cc1`, the cell number change came to 49.5%. Under setting [2], the AC50 is 7.31 µM [rising, partial curve, poor fit]. The AC50 under setting [1] is 14.6 µM [rising, partial curve].

For `COc1ccccc1N1CCN(C2CC(=O)N(c3cccc(Br)c3)C2=O)CC1` (stereo unspecified), the cell number change was -8.47%.

As to `CCOC(=O)Nc1ccc(C(N)=O)cc1`, the cell number change was determined as 2.23%. Moreover, under setting [2], the AC50 is 0.103 µM [falling, full curve, poor fit].

For `Cc1noc(C)c1S(=O)(=O)N(CC(=O)Nc1ccc2c(c1)OCCO2)c1ccc(C(C)C)cc1`, the cell number change came to 4.09%. Also, the AC50 under setting [1] was 25.9 µM [falling, single point].

Consider `COc1ccc(NS(=O)(=O)c2ccc(C)c(C(=O)NNC(=O)c3ccccc3O)c2)cc1`, for which the cell number change was -11.2%. Further, the AC50 under setting [1] is 0.164 µM [rising, full curve, poor fit].

`CCc1ccc(O)c(N=Cc2cccc(C)c2O)c1`: the cell number change is -16.7%. Moreover, the AC50 under setting [2] was 0.116 µM [falling, full curve, poor fit]. In addition, the AC50 under setting [1] is 0.651 µM [falling, full curve].

As for `COc1ccc(NC(=O)NNC(=O)C(C)Oc2ccc3ccccc3c2)cc1` (stereo unspecified), the cell number change was found to be 18.8%. Further, under setting [1], the AC50 was 13 µM [rising, partial curve, poor fit].

With `O=S(=O)(NN1CCOCC1)c1ccc(Br)s1`, the cell number change was 2.7%. Under setting [1], the AC50 was 29.1 µM [falling, single point].

Regarding `O=C(CNC(=O)c1ccc(Br)o1)NCc1ccccc1Cl`, the cell number change was found to be 16.4%. The AC50 under setting [1] is 20.6 µM [rising, single point].

Regarding `COc1ccc(OC)c(C(=O)COC(=O)c2cccnc2SC)c1`, the cell number change was -24.9%.

Turning to `O=C(Cc1ccc(Cl)cc1)Nc1ccc2oc(=O)ccc2c1`, the cell number change came to 12.2%. Also, the AC50 under setting [1] is 1.84 µM [rising, partial curve].

As for `O=C(Nc1ccc(NC(=S)NC(=O)c2ccccc2F)cc1)c1cccs1`, the AC50 under setting [2] is 4.11 µM [rising, single point].

For the compound `c1cc(-c2nsc(-c3ccncc3)n2)ccn1`, the cell number change is 20.3%. Further, the AC50 under setting [1] was 14.6 µM [rising, partial curve, poor fit].

`CC1C/C(=N/NC(=O)c2cccs2)CC(C)(C)C1` (stereo unspecified): the cell number change was 50.6%. Also, the AC50 under setting [2] was 29.1 µM [rising, single point]. In addition, under setting [1], the AC50 is 0.82 µM [falling, single point].

With `O=C(CCN1C(=O)C2C3CCC(C3)C2C1=O)OCC(=O)c1ccc(Br)cc1` (stereo unspecified), the cell number change is -14.4%. In addition, the AC50 under setting [1] was 13 µM [falling, single point].

For the compound `Cc1cc(Br)ccc1SCC(=O)OCC(=O)Nc1ncc(C(F)(F)F)cc1Cl`, the cell number change worked out at 12.8%. Further, under setting [1], the AC50 was 6.51 µM [falling, single point].

Turning to `CCCCN(C1CCS(=O)(=O)C1)S(=O)(=O)c1ccc(OC)cc1` (stereo unspecified), the cell number change was -31%. Also, the AC50 under setting [2] was 29.1 µM [falling, single point].

With `CCOc1cccc(NC(=O)c2cccc(F)c2)c1`, the cell number change came to 96.8%. Under setting [2], the AC50 is 0.731 µM [rising, single point].

On to `CCn1c(O)c(N=NC(=O)c2ccc(CSc3nncn3C)cc2)c2ccccc21`, for which the cell number change was -18.5%.

For `O=C(NCCc1cn2ccccc2n1)C1CCCCC1`, the AC50 under setting [1] is 0.291 µM [falling, partial curve, poor fit].

As to `Cc1cccc(Nc2nc(NC(C)C)nc(Oc3ccc(=O)n(C)n3)n2)c1`, the cell number change is 5.2%. Besides, under setting [2], the AC50 is 1.46 µM [rising, partial curve].

Turning to `COc1ccc(N2CCN(C(=O)COC(=O)c3oc4ccc(OC)cc4c3C)CC2)cc1`, the cell number change is -0.971%.

On to `Cc1ccc2c(c1)c(N=Nc1ccc([N+](=O)[O-])cc1)c(O)n2C`, for which the AC50 reads like this: under setting [2], 0.651 µM [rising, partial curve, poor fit]; under setting [1], 0.58 µM [rising, single point].

Consider `O=C(CSc1nc(-c2ccccc2)c(-c2ccccc2)[nH]1)Nc1nccs1`, for which the cell number change is -44.4%. Besides, the AC50 under setting [2] was 16.4 µM [falling, single point]. For the same compound, the AC50 under setting [1] is 7.31 µM [falling, single point].

`O=C(CN1CCN(Cc2ccccc2F)CC1)Nc1ccccc1Cl`: the cell number change is 2.13%. The AC50 under setting [1] was 0.58 µM [falling, single point].

Take `COC(=O)CSc1nc2c(c(-c3ccc(O)cc3)c1C#N)CCCC2`: the cell number change is -54.6%. Further, the AC50 under setting [2] is 20.6 µM [falling, single point]. Besides, under setting [1], the AC50 was 29.1 µM [falling, single point].

As for `CCOc1ccc2nc(NC(=O)c3ccoc3C)sc2c1`, the cell number change was -19.7%. Besides, the AC50 under setting [1] is 4.61 µM [rising, partial curve, poor fit].

For the compound `C1=Nc2c(Nc3ccccc3)ncnc2Oc2ccccc21`, the cell number change turned out to be 3.75%. Also, the AC50 under setting [1] was 6.51 µM [rising, partial curve, poor fit].

Consider `Cc1ccc(SCCC(=O)Nc2ccc(Br)c(C)c2)cc1`, for which the cell number change was -16.4%. Moreover, the AC50 under setting [1] was 25.9 µM [falling, single point].

For `CC(=O)c1c(N2CCN(c3ccc(F)cc3)CC2)nc(=S)n(-c2ccccc2)c1C`, the cell number change came to 30.8%. The AC50 under setting [2] was 3.66 µM [rising, partial curve]. The AC50 under setting [1] is 0.0058 µM [falling, full curve, poor fit].

As to `COc1ccc(C(C(=O)NC2CCCC2)N(C(=O)c2ccoc2C)c2ccc(C)c(C)c2)cc1` (stereo unspecified), the cell number change was -12.5%. For the same compound, the AC50 under setting [1] was 29.1 µM [falling, single point].

As for `COc1ccccc1OCCn1cc(/C=N/NC(=O)c2ccncc2)c2ccccc21`, the cell number change was 25.9%. Moreover, the AC50 under setting [1] was 20.6 µM [rising, single point].

On to `O=C(CNC(=S)N(Cc1ccccc1F)C1CCCCC1)NCCN1CCOCC1`, for which, under setting [1], the AC50 is 0.00651 µM [falling, full curve, poor fit].

Take `Nc1cccc2c(=O)c3ccccc3[nH]c12`: the cell number change amounted to 11.3%. Besides, under setting [1], the half-maximal activity concentration (AC50) is 7.31 µM [falling, partial curve].

Consider `CC1(C(=O)O)CCC(C(=O)NNC(=O)c2ccccc2O)C1(C)C` (stereo unspecified), for which the cell number change amounted to 27.8%. Moreover, the AC50 under setting [2] was 3.26 µM [rising, full curve, poor fit].

For `CC(=O)Nc1ccc(NC(=O)CSc2nnc(-c3ccc(NS(C)(=O)=O)cc3)n2C)cc1C`, the cell number change is -29.4%.

Take `COC(=O)c1cccc(Nc2nc3ccccc3nc2C)c1`: the cell number change is -23.2%. The AC50 under setting [1] was 20.6 µM [falling, single point].

`Cc1ccc(-c2nn(-c3ccccc3)cc2C(=O)N2CCN(C3CCS(=O)(=O)C3)CC2)cc1` (stereo unspecified): the cell number change was -8.13%. For the same compound, under setting [1], the AC50 is 3.66 µM [rising, single point].

In the case of `Cc1ccc(C)c(S(=O)(=O)N2CCN(C(=O)c3ccc(-n4cncn4)c([N+](=O)[O-])c3)CC2)c1`, the cell number change was -17.7%.

As for `CC1CCOC(c2coc3ccccc3c2=O)O1` (stereo unspecified), the cell number change worked out at 8.11%. Besides, the AC50 under setting [2] was 6.51 µM [rising, single point].

Consider `Cc1nn(CCC(=O)O)c2nc(-c3cccnc3)cc(C(F)(F)F)c12`, for which the cell number change is -30.9%. Further, under setting [2], the concentration at half-maximal activity (AC50) is 29.1 µM [falling, single point]. Also, under setting [1], the AC50 is 1.46 µM [falling, partial curve].

With `Cc1nn(C)c(C)c1NC(=O)CC12CC3CC(CC(C3)C1)C2`, under setting [1], the AC50 was 1.16 µM [falling, single point].

As to `COc1ccccc1N1CCN(S(=O)(=O)c2ccc(-n3cnnn3)cc2)CC1`, the cell number change is -13.3%. Further, the AC50 under setting [1] was 29.1 µM [falling, partial curve, poor fit].

`CCc1ccc(C2NC(=S)NC3=C2C(=O)N(c2ccccc2OC)C(c2ccc(CC)cc2)N3)cc1` (stereo unspecified): the cell number change was -80.5%. Further, the AC50 under setting [1] was 4.11 µM [rising, partial curve, poor fit].

`CCOc1ccc(NC(=O)CN(C)C(=O)CN2C(=O)NC3(CCCC3)C2=O)cc1OCC`: the cell number change stood at 8.84%.

With `N#Cc1cccc(NC(=O)COC(=O)Cn2nc(-c3ccccc3)oc2=O)c1`, the cell number change worked out at 2.55%. Further, under setting [1], the AC50 is 9.2 µM [rising, partial curve, poor fit].
